From publication PMC5845537 (Frontiers in Pharmacology, 2018)

System: Sprague-Dawley rats
Assay: Rat object recognition (OR) task after subchronic PCP
Type: in vivo
Conditions: rat novel object recognition, mean ± SEM
[1] = PCP/10Vor group (subPCP + 10 mg/kg vortioxetine)

Row | SMILES | Total exploration time, Testing Trial [1] [s] | Total exploration time, Training Trial [1] [s] | Total exploration time, Testing Trial (PCP/Veh group) [s] | Total exploration time, Training Trial (PCP/Veh group) [s]
1 | Cc1ccc(Sc2ccccc2N2CCNCC2)c(C)c1 [vortioxetine] | 30 ± 3.2 | 34.1 ± 2.8 | – | –
2 | Cl.c1ccc(C2(N3CCCCC3)CCCCC2)cc1 [PCP, 1-(1-phenylcyclohexyl)-piperidine hydrochloride] | – | – | 33.8 ± 5 | 34.6 ± 2.8
